According to patent US20020102246A1, “Antimicrobial compositions” (Novozymes A/S, priority 2000, published 2002):
The name of at least one read-out is uncertain.

Tested on: Pseudomonas putida ATCC12633
Test: Screening of laccase/enhancing agent combinations for growth inhibition (384 well microtiter plates)
Format: cell-based
Conditions: 25 min at 40° C., 50 mM HEPES pH 7.0, estimated from growth curves vs standard curve

`Nc1cccc2cccnc12` [8-Aminoquinoline] was tested, and the CFU reduction (mediated by CcL (Coprinus cinereus laccase)) was >10^5 and the CFU reduction (mediated by RsL (Rhizoctonia solani laccase)) was >10^5.
